Laboratory results: PubChem BioAssay AID504834 (National Center for Advancing Translational Sciences (NCATS), 2011)
About 22,000 (6.9%) of roughly 320,000 compounds were called active. This list was built around the results that the source calls inconclusive (neither active nor inactive); the mix of calls is not that of the screen. Calls follow the shape of the dose curve; as a rule, active = well fitted inhibition curve with a large enough effect; inconclusive = small, poorly fitted or top-dose-only effect, or another doubt; inactive = no such curve, though single readings can be large or run the other way. A potency beside an inconclusive call is a rough fit, not a confirmed value.

Assay: Primary qHTS for delayed death inhibitors of the malarial parasite plastid, 96 hour incubation
Conditions: P. falciparum luciferase reporter growth; series mostly up to 28.7 µM; activity change, negative = inhibition: at the top concentration
In short: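 96 h incubation, 37 C, 5% CO2, of luciferase-reporter P. falciparum-infected RBCs (2% hematocrit, 0.05% parasitemia final) with test compounds; endpoint luminescence.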
% is scaled to controls: 0 for no effect and ±100 for the full control effect; potency is read from the fitted curve at half-maximal effect.

Compound | activity change, negative = inhibition | Potency
CC(C)CN(C(=O)c1cc2ccccc2o1)c1c(N)n(CC(C)C)c(=O)[nH]c1=O | inactive: -3.75% | –
O=C1CC(=O)N(c2ccccc2)N1c1ccccc1 | inactive: 46% | –
COC(=O)c1c(NC(=O)CN2CCN(S(=O)(=O)c3ccccc3[N+](=O)[O-])CC2)sc2c1CCC(C)C2 (stereo not drawn) | – | active: 9.28 µM
CC(=O)c1cccc(NC(=O)c2ccc3c(c2)C(=O)N(Cc2cccnc2)C3=O)c1 | inactive: 87.5% | –
Cc1ccc(NC(=O)C(C)N2C(=O)C3CC=C(Cl)CC3C2=O)cc1 (stereo not drawn) | – | inconclusive: 18.5 µM [inhibitor, single point]
COc1ccc2[nH]c3c(c2c1)CCN1C(=O)N([C@@H](C)C(=O)NC2CCCC2)C(=O)[C@]31C | – | inconclusive: 10.4 µM [inhibitor, partial curve, poor fit]
CCCCC(=O)Nc1nnc(SCC(=O)NC2CC2)s1 | – | inconclusive: 13.1 µM [inhibitor, partial curve, poor fit]
COc1cccc2c1c(NC(=O)c1cc(C)on1)nn2C | inactive: 31.2% | –
CCOc1ccccc1NC(=O)C1CCN(C(=O)Cc2ccccc2)CC1 | – | inconclusive: 14.7 µM [inhibitor, partial curve, poor fit]
CCOc1ccccc1C1CC(c2ccc(Br)cc2)Nc2nc(N)nn21 (stereo not drawn) | – | active: 7.38 µM
CC1CCCCC12NC(=O)N(CC(=O)NCC(=O)Nc1ccc(F)c(F)c1F)C2=O (stereo not drawn) | – | inconclusive: 18.5 µM [inhibitor, single point]
COc1ccc(-n2c(C)cc(-c3csc(N)n3)c2C)cc1 | – | inconclusive: 18.5 µM [inhibitor, single point]
CCN1CCN(c2nc(N(C)c3ccccc3)nc(N)c2[N+](=O)[O-])CC1 | – | inconclusive: 0.0657 µM [inhibitor, full curve, poor fit]
COc1ccc(CCC(=O)N(c2nnc(-c3cccnc3)s2)C(C)C)cc1 | – | inconclusive: 2.08 µM [inhibitor, partial curve]
CC1CCCC(N2CCN(C(=O)c3ccc([N+](=O)[O-])cc3)CC2)C1 (stereo not drawn) | – | inconclusive: 18.5 µM [inhibitor, single point]
O=C(CN1CCN(c2ccc(O)cc2)CC1)N1CCc2ccccc21 | – | inconclusive: 18.5 µM [inhibitor, single point]
COC(=O)c1ccc(Nc2cc(C)nc3ccc(C)cc23)cc1 | – | inconclusive: 18.5 µM [inhibitor, single point]
O=C(Nc1cccc(Cl)c1)Nc1nc(-c2ccccc2)cs1 | – | inconclusive: 13.1 µM [inhibitor, single point]
CCN(CC)CCNC(=O)c1ccc(NC(=O)c2cc(-c3ccncc3)nc3ccccc23)cc1 | – | active: 8.28 µM
COc1ccc(CCNC(=O)Cn2nnc(-c3ccc(N4CCOCC4)cc3)n2)cc1OC | – | inconclusive: 10.4 µM [inhibitor, single point]
O=C(CCN1CCc2ccccc2C(c2ccccc2)C1)c1ccc2c(c1)OCCO2 (stereo not drawn) | inactive: -9.23% | –
Cc1ccc(S(=O)(=O)N2CCC(=O)N(CCOC(=O)Nc3ccccc3C)CC2)cc1 | – | inconclusive: 16.5 µM [inhibitor, single point]

One compound at a time (already shown).
COc1ccc2[nH]c3c(c2c1)CCN1C(=O)N([C@@H](C)C(=O)NC2CCCC2)C(=O)[C@]31C as listed: Potency: inconclusive: 10.4 µM [inhibitor, partial curve, poor fit]
COC(=O)c1ccc(Nc2cc(C)nc3ccc(C)cc23)cc1 as listed: Potency: inconclusive: 18.5 µM [inhibitor, single point]

More records follow.

Compound | activity change, negative = inhibition | Potency
CCc1ccc(/C=C2/Sc3ccccc3N(CC(=O)NCCCN3CCOCC3)C2=O)cc1 | – | inconclusive: 18.5 µM [inhibitor, single point]
CN(CCOc1ccccc1)C(=O)C1CCN(C(=O)c2ccc(F)cc2)CC1 | – | inconclusive: 7.38 µM [inhibitor, partial curve, poor fit]
CC(C)(C)c1ccc(C(=O)NC(=S)N2CCCCCC2)cc1 | – | inconclusive: 10.4 µM [inhibitor, single point]
S=c1[nH]nc(C2CCCCC2)n1/N=C/C=C/c1ccccc1 | – | inconclusive: 0.0033 µM [inhibitor, full curve, poor fit]
CN(C)Cc1ccccc1Sc1ccc(O)cc1O | inactive: 20.3% | –
COC(=O)c1ccc(OC(=O)CN2C(=O)c3ccccc3C2=O)cc1 | – | inconclusive: 9.28 µM [inhibitor, single point]
Cc1cccc2c1OCC/C2=N\NC(=O)COc1ccccc1Cl | inactive: 87.2% | –
CC(C)(C)OC(=O)NCCCCCNC(=O)c1[nH]cnc1C(=O)Nc1nccs1 | – | inconclusive: 2.62 µM [inhibitor, full curve]
CC(C)CC1NC(=O)N(CC(=O)Nc2ccc(OCc3ccccc3)cc2)C1=O (stereo not drawn) | inactive: 7.02% | –
Cc1cc(-c2nnc(CCC(=O)N(CC3CC3)CC3CCCO3)o2)no1 (stereo not drawn) | – | inconclusive: 11.7 µM [inhibitor, partial curve, poor fit]
C=CCn1c(SCC(=O)NCc2ccco2)nc2sc3c(c2c1=O)CCCC3 | – | inconclusive: 0.0928 µM [inhibitor, full curve, poor fit]
Cc1cc(NC(=O)C(C)SCC(=O)Nc2cc(C(F)(F)F)ccc2N2CCOCC2)no1 (stereo not drawn) | – | inconclusive: 10.4 µM [inhibitor, single point]
COc1cccc(NC(=O)CN(C)S(=O)(=O)c2ccc3c(c2)CCC(=O)N3)c1 | – | active: 7.38 µM
CCCc1nnc(NC(=O)CCC(=O)N2CCN(c3ccccc3)CC2)s1 | – | inconclusive: 2.08 µM [inhibitor, single point]
O=C(/C=C/c1cccc([N+](=O)[O-])c1)Nc1cc(C(=O)O)cc(C(=O)O)c1 | – | inconclusive: 0.37 µM [inhibitor, partial curve, poor fit]
CCC(C(=O)Nc1ccc(S(=O)(=O)N(C)C2CCN(C)CC2)cc1)c1ccccc1 (stereo not drawn) | – | inconclusive: 10.4 µM [inhibitor, partial curve]
Cc1ccc(NS(=O)(=O)c2ccc3c(c2)NC(=O)CCS3)c(Br)c1 | – | inconclusive: 10.4 µM [inhibitor, partial curve]
O=C(/C=C/c1cccc([N+](=O)[O-])c1)NCCSCc1cccc(Cl)c1 | inactive: 14.3% | –
C[N+](C)(C)CCOc1ccc([N+](=O)[O-])cc1 | – | inconclusive: 11.7 µM [inhibitor, single point]
CC(C)CCNC(=O)c1ccccc1NC(=O)C1=CSCCO1 | inactive: 0.571% | –
COC(=O)/C=C1\S/C(=N/NC(=O)c2ccc(OC)cc2)NC1=O | – | inconclusive: 0.37 µM [inhibitor, partial curve, poor fit]
